The text below walks through data of article PMC11611905, “Recruitment of autophagy initiator TAX1BP1 advances aggrephagy from cargo collection to sequestration” (The EMBO Journal, 2024).

The chains behind the UniProt entries cited, without tags or fusion partners.
UniProt O95166: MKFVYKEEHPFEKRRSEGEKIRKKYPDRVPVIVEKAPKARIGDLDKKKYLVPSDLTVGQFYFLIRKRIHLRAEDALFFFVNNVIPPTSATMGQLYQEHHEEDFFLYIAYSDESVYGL

No constants are given. Whether binding was seen depends on the method and setting. Some entries that bind do so weakly or less than the wild type. Tags and fused reporters may be left off the sequences shown.

The target in one assay is T1, GFP-NBR1 (purified) (UniProt Q14596).
T1 sequence: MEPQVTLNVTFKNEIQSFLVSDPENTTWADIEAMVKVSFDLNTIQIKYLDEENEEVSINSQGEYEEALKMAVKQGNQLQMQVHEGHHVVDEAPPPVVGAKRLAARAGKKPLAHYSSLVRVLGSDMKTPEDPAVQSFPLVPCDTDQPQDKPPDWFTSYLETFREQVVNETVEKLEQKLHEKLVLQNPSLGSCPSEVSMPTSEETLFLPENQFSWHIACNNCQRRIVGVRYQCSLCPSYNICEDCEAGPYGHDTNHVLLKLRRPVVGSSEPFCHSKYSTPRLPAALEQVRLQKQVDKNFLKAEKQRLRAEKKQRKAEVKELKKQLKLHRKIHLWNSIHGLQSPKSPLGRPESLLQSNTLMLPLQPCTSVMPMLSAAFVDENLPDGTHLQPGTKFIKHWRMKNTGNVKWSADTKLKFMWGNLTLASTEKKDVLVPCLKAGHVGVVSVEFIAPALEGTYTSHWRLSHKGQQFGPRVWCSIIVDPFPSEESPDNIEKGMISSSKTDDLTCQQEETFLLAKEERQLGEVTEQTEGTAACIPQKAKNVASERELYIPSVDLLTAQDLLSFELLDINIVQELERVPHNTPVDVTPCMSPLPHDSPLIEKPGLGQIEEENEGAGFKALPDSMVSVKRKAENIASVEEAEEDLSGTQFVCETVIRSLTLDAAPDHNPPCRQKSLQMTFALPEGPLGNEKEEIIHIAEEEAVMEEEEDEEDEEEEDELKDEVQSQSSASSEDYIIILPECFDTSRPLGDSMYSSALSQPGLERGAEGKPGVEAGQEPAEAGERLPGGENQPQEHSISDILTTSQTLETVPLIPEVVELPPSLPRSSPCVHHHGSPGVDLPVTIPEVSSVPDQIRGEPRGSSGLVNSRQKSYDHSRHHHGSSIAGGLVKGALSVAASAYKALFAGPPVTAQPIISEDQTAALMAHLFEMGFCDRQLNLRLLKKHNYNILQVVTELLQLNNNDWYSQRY
As to the kind of experiment: microscopy-based protein interaction assay; GFP-NBR1 on GFP-trap beads pre-incubated with mCh-TAX1BP1; 5 µM GABARAP added afterwards and the TAX1BP1 signal followed over time; both purified.

Assay [1] deals with T2, NBR1 (untagged, purified) (UniProt Q14596).
T2 sequence: T1 sequence
As to the kind of experiment: in vitro condensation assay (fluorescence microscopy); 500 nM mCherry-p62 S403E, 250 nM NBR1, 250 nM GFP-TAX1BP1 and GABARAP (0 nM, 500 nM, 1 µM, 5 µM); SEC buffer; 1.5 µM GST-4xUB; both purified.

For GABARAP (from UniProt O95166 1-117), the binding entry (in the assay with GFP-NBR1 (purified); in assay [1]) was “binds” throughout.
